Reference: the supplement of paper PMC9744312
Structures can show the parent of a compound that is named as a salt. The list shows a part of the results. This is a noisy data set.

system: Peyronie's disease tunica albuginea primary fibroblasts; assay: inhibition of TGF-beta1-induced alpha-SMA expression (myofibroblast transformation), relative to TGF-beta1-only and untreated controls; higher = stronger inhibition of myofibroblast transformation; conditions: 10 µM; TGF-beta1 10 ng/mL; 72 h

| Compound | inhibition of TGF-beta1-induced alpha-SMA expression [%] |
| --- | --- |
| CN1C(C(=O)Nc2ccccn2)=C(O)c2ccccc2S1(=O)=O [Piroxicam] | 22.9 |
| NCCS [Cysteamine HCl] | -16.9 |
| COCCOC(=O)C1=C(C)NC(C)=C(C(=O)OC(C)C)C1c1cccc([N+](=O)[O-])c1 (centres undefined) [Nimodipine] | 23.6 |
| CC1(C)[C@@H](O)CC[C@]2(C)[C@H]3C(=O)C=C4[C@@H]5C[C@@](C)(C(=O)O)CC[C@]5(C)CC[C@@]4(C)[C@]3(C)CC[C@@H]12 [Enoxolone] | 7.54 |
| O=C(O)c1ccc(NC(=O)[C@H](Cc2ccc(O)cc2)NC(=O)c2ccccc2)cc1 [Bentiromide] | 15 |
| c1cc(CN2CCCNCCNCCCNCC2)ccc1CN1CCCNCCNCCCNCC1 [Plerixafor 8HCl (AMD3100 8HCl)] | 3.64 |
| c1cc(CN2CCCNCCNCCCNCC2)ccc1CN1CCCNCCNCCCNCC1 [Plerixafor (AMD3100)] | 10.8 |
| COc1ccc2c3c1O[C@H]1C[C@@H](O)C=C[C@@]31CCN(C)C2 [Galanthamine HBr] | -9.48 |
| CC1(C)S[C@@H]2[C@H](NC(=O)COc3ccccc3)C(=O)N2[C@H]1C(=O)O [Penicillin V potassium salt] | 0.304 |
| Cc1cc(C#N)cc(C)c1Oc1nc(Nc2ccc(C#N)cc2)nc(N)c1Br [Etravirine (TMC125)] | 39.1 |
| Cc1nnc(SCC2=C(C(=O)O)N3C(=O)[C@@H](NC(=O)Cn4cnnn4)[C@H]3SC2)s1 [Cefazolin Sodium] | -9.51 |
| O=c1[nH]c(=O)n([C@H]2C[C@H](O)[C@@H](CO)O2)cc1C(F)(F)F [Trifluridine] | -6.83 |
| S=c1[nH]cnc2nc[nH]c12 [Mercaptopurine (6-MP)] | -5.49 |
| Cc1ccccc1C(=O)Nc1ccc(C(=O)N2CCCC(N(C)C)c3ccccc32)cc1 (centres undefined) [Mozavaptan] | 37.6 |
| CN(Cc1ccc(C(C)(C)C)cc1)Cc1cccc2ccccc12 [Butenafine HCl] | 10.7 |
| O=C1N=C(O)NC1(c1ccccc1)c1ccccc1 [Phenytoin Sodium] | 3 |
| CC1(C)O[C@@H]2[C@@H](CO[C@@]3(COS(N)(=O)=O)OC(C)(C)O[C@@H]23)O1 [Topiramate] | 71.5 |
| COc1cc(NS(=O)(=O)c2ccc(N)cc2)nc(OC)n1 [Sulphadimethoxine] | 32.8 |
| CCNC(=O)[C@@H]1CCCN1C(=O)[C@H](CCCNC(=N)N)NC(=O)[C@H](CC(C)C)NC(=O)[C@@H](CC(C)C)NC(=O)[C@H](Cc1ccc(O)cc1)NC(=O)[C@H](CO)NC(=O)[C@H](Cc1c[nH]c2ccccc12)NC(=O)[C@H](Cc1c[nH]cn1)NC(=O)[C@@H]1CCC(=O)N1 [Leuprorelin Acetate] | 7.9 |
| CCNC(=O)[C@@H]1CCCN1C(=O)[C@H](CCCNC(=N)N)NC(=O)[C@H](CC(C)C)NC(=O)[C@@H](CC(C)C)NC(=O)[C@H](Cc1ccc(O)cc1)NC(=O)[C@H](CO)NC(=O)[C@H](Cc1c[nH]c2ccccc12)NC(=O)[C@H](Cc1c[nH]cn1)NC(=O)[C@@H]1CCC(=O)N1 [Leuprolide Acetate] | 40.9 |
| CN(C)c1cc(NC(=O)CNC(C)(C)C)c(O)c2c1C[C@H]1C[C@H]3[C@H](N(C)C)C(O)=C(C(N)=O)C(=O)[C@@]3(O)C(O)=C1C2=O [Tigecycline] | -8.63 |
| Cn1nnc(-c2ccc(-c3ccc(N4C[C@H](CO)OC4=O)cc3F)cn2)n1 [Tedizolid] | 18.2 |

| Compound | inhibition of TGF-beta1-induced alpha-SMA expression [%] |
| --- | --- |
| Cc1cccc(Nc2ccncc2S(=O)(=O)NC(=O)NC(C)C)c1 [Torsemide] | 9.49 |
| NC1=NCC2c3ccccc3Cc3ccccc3N12 (centres undefined) [Epinastine HCl] | > 100 |
| NC(=O)N1c2ccccc2CC(=O)c2ccccc21 [Oxcarbazepine] | 11.9 |
| CC(C)Cn1cnc2c(N)nc3ccccc3c21 [Imiquimod] | 19 |
| CC(C)(C)NCC(O)COc1cccc2c1CC(O)C(O)C2 (centres undefined) [Nadolol] | 17 |
| Nc1ccccc1NC(=O)c1ccc(CNc2nccc(-c3cccnc3)n2)cc1 [Mocetinostat (MGCD0103)] | 73.5 |
| CC(C)CCCCC(=O)N[C@@H](CCN)C(=O)N[C@H](C(=O)N[C@@H](CCN)C(=O)N[C@H]1CCNC(=O)[C@H]([C@@H](C)O)NC(=O)[C@H](CCN)NC(=O)[C@H](CCN)NC(=O)[C@H](CC(C)C)NC(=O)[C@@H](Cc2ccccc2)NC(=O)[C@H](CCN)NC1=O)[C@@H](C)O [Polymyxin B sulphate] | 52.7 |
| CCOCCn1c(N2CCCN(C)CC2)nc2ccccc21 [Emedastine] | 8.78 |
| CCOCCn1c(N2CCCN(C)CC2)nc2ccccc21 [Emedastine Difumarate] | 16.2 |
| Cc1cccn2c(=O)c(-c3nnn[nH]3)cnc12 [Pemirolast potassium] | 26.9 |
| CC[C@H](C)C(=O)O[C@H]1C[C@H](O)C=C2C=C[C@H](C)[C@H](CC[C@@H](O)C[C@@H](O)CC(=O)O)[C@H]21 [Pravastatin sodium] | 9.37 |
| CC1=C(C(=O)O)N2C(=O)[C@@H](NC(=O)[C@H](N)c3ccccc3)[C@H]2SC1 [Cephalexin] | -2.37 |
| Cc1nccn1CC1CCc2c(c3ccccc3n2C)C1=O (centres undefined) [Ondansetron Hydrochloride Dihydrate] | 4.67 |
| Cc1nccn1CC1CCc2c(c3ccccc3n2C)C1=O (centres undefined) [Ondansetron HCl] | 15.7 |
| CC(=O)NC[C@H]1CN(c2ccc(N3CCOCC3)c(F)c2)C(=O)O1 [Linezolid] | 18.6 |
| COc1ccc2c(c1)c(CC(=O)OCC(=O)O)c(C)n2C(=O)c1ccc(Cl)cc1 [Acemetacin] | 7.04 |
| COc1cc2c(cc1Cc1cccc(Cl)c1F)c(=O)c(C(=O)O)cn2[C@H](CO)C(C)C [Elvitegravir (GS-9137, JTK-303)] | 39.8 |
| COc1ccc2cc3[n+](cc2c1OC)CCc1cc2c(cc1-3)OCO2 [Berberine chloride] | 27.9 |
| COc1ccc2cc3[n+](cc2c1OC)CCc1cc2c(cc1-3)OCO2 [Berberine Sulfate] | 34.4 |
| Cc1cc(Nc2cc(CN3CCOCC3)c3nc(C)c(Cc4ccc(Cl)cc4F)n3n2)n[nH]1 | 92.3 |
| CCOC(=O)N[C@@H]1CC[C@@H]2[C@@H](C1)C[C@H]1C(=O)O[C@H](C)[C@H]1[C@H]2/C=C/c1ccc(-c2cccc(F)c2)cn1 [Vorapaxar] | -35.2 |
| Nc1nnc(-c2cccc(Cl)c2Cl)c(N)n1 [Lamotrigine] | -1.86 |

| Compound | inhibition of TGF-beta1-induced alpha-SMA expression [%] |
| --- | --- |
| CC[C@@]1(O)C(=O)OCc2c1cc1n(c2=O)Cc2cc3c(CN(C)C)c(O)ccc3nc2-1 [Topotecan HCl] | > 100 |
| Nc1nc(=O)[nH]cc1F [Flucytosine] | 10.1 |
| CN(C)C(=O)c1cc2cnc(Nc3ccc(N4CCNCC4)cn3)nc2n1C1CCCC1 [Ribociclib (LEE011)] | 22.5 |
| CC(=O)O[C@]1(C(C)=O)CC[C@H]2[C@@H]3C=C(C)C4=CC(=O)CC[C@]4(C)[C@H]3CC[C@@]21C [Megestrol Acetate] | 53.7 |
| C=C1[C@H](CO)[C@@H](O)C[C@@H]1n1cnc2c(=O)[nH]c(N)nc21 [Entecavir] | -5.49 |
| C=C1[C@H](CO)[C@@H](O)C[C@@H]1n1cnc2c(=O)[nH]c(N)nc21 [Entecavir Hydrate] | 23.9 |
| CC/C=C(\C(=O)N[C@@H]1C(=O)N2C(C(=O)OCOC(=O)C(C)(C)C)=C(COC(N)=O)CS[C@H]12)c1csc(N)n1 [Cefcapene Pivoxil Hydrochloride] | -1.1 |
| CC(=O)[O-].[K+] [Potassium acetate] | -28.1 |
| Cc1ccc(C(C)C)c(O)c1 [Thymol] | 39 |
| C#CC1(O)CC[C@H]2[C@@H]3CCC4=CC(=O)CC[C@@H]4[C@H]3CC[C@@]21CC (some centres undefined) [Norgestrel] | 34.7 |
| N[C@@H](CC(=O)N1CCn2c(nnc2C(F)(F)F)C1)Cc1cc(F)c(F)cc1F [Sitagliptin] | 12 |
| N[C@@H](CC(=O)N1CCn2c(nnc2C(F)(F)F)C1)Cc1cc(F)c(F)cc1F [Sitagliptin phosphate monohydrate] | 24.5 |
| COc1nc(C)cnc1NS(=O)(=O)c1cccnc1-c1ccc(-c2nnco2)cc1 [Zibotentan (ZD4054)] | -12.7 |
| C/C(O)=C(\C#N)C(=O)Nc1ccc(C(F)(F)F)cc1 [Teriflunomide] | 26.8 |
| C[C@@H]1O[C@@H](OC[C@H]2O[C@@H](Oc3c(-c4ccc(O)c(O)c4)oc4cc(O)cc(O)c4c3=O)[C@H](O)[C@@H](O)[C@@H]2O)[C@H](O)[C@H](O)[C@H]1O [Rutin] | 4.22 |
| CCCC(=O)Nc1ccc(OCC(O)CNC(C)C)c(C(C)=O)c1 (centres undefined) [Acebutolol HCl] | -6.07 |
| CO/N=C(\C(=O)N[C@@H]1C(=O)N2C(C(=O)O)=C(CSC(=O)c3ccco3)CS[C@H]12)c1csc(N)n1 [Ceftiofur] | -1.57 |
| CO/N=C(\C(=O)N[C@@H]1C(=O)N2C(C(=O)O)=C(CSC(=O)c3ccco3)CS[C@H]12)c1csc(N)n1 [Ceftiofur HCl] | 7.88 |
| CN1[C@@H]2CC[C@H]1C[C@@H](OC(c1ccccc1)c1ccccc1)C2 [Benztropine mesylate] | 47.9 |
| CO[C@H]1O[C@H](COS(=O)(=O)O)[C@@H](O[C@@H]2O[C@@H](C(=O)O)[C@@H](O[C@H]3O[C@H](COS(=O)(=O)O)[C@@H](O[C@@H]4O[C@H](C(=O)O)[C@@H](O[C@H]5O[C@H](COS(=O)(=O)O)[C@@H](O)[C@H](O)[C@H]5NS(=O)(=O)O)[C@H](O)[C@H]4O)[C@H](OS(=O)(=O)O)[C@H]3NS(=O)(=O)O)[C@H](O)[C@H]2OS(=O)(=O)O)[C@H](O)[C@H]1NS(=O)(=O)O [Fondaparinux Sodium] | 32.3 |

Some of the entries so far, in CSV form:
Compound,inhibition of TGF-beta1-induced alpha-SMA expression [%]
N[C@@H](CC(=O)N1CCn2c(nnc2C(F)(F)F)C1)Cc1cc(F)c(F)cc1F [Sitagliptin],12
N[C@@H](CC(=O)N1CCn2c(nnc2C(F)(F)F)C1)Cc1cc(F)c(F)cc1F [Sitagliptin phosphate monohydrate],24.5
COc1nc(C)cnc1NS(=O)(=O)c1cccnc1-c1ccc(-c2nnco2)cc1 [Zibotentan (ZD4054)],-12.7
C/C(O)=C(\C#N)C(=O)Nc1ccc(C(F)(F)F)cc1 [Teriflunomide],26.8
C[C@@H]1O[C@@H](OC[C@H]2O[C@@H](Oc3c(-c4ccc(O)c(O)c4)oc4cc(O)cc(O)c4c3=O)[C@H](O)[C@@H](O)[C@@H]2O)[C@H](O)[C@H](O)[C@H]1O [Rutin],4.22
CCCC(=O)Nc1ccc(OCC(O)CNC(C)C)c(C(C)=O)c1 (centres undefined) [Acebutolol HCl],-6.07
